According to patent publication US20250163183A1:
No constants are given. Whether binding was seen depends on the method and setting. Some binding calls cover weakened binding; strength is not graded here.

Chains of the proteins cited; added tags and fusions are not shown. Lines headed by an entry give the natural chain unless they say otherwise; changes in a name come on top.
UniProt P04070: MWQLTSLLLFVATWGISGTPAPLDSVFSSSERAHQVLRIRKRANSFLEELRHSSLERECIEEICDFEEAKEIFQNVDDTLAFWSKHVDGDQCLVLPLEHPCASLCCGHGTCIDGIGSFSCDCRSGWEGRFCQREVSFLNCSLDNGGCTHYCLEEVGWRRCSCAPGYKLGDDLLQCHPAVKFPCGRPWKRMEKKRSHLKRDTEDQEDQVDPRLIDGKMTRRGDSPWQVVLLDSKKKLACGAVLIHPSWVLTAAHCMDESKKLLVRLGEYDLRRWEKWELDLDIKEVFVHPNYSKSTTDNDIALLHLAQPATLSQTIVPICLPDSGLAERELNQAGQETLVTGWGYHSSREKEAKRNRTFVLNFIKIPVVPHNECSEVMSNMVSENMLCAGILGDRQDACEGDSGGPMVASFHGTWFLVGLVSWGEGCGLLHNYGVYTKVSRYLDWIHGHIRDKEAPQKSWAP

Experiments:
[1] = biological target: human activated protein C (APC) (human) (UniProt P04070); test: ELISA
[2] = biological target: human activated protein C (APC) (human) (UniProt P04070); test: ELISA screen, APC-coated wells, OD450, n=2 [Continued]

Binder | binding [1] | binding [2]
SR16983-R2-P3-F07 (VHH) VHH: QLQLVESGGGLVQAGGSLRLSCAASGTTFDMNSMGWYRQAPGFKRDLVATISIGGDTNYTDSVKGRFTISRDNAKNTVYMQMNSLKPEDTAVYYCNAERIWPNRRSFWGQGTQVTVSS | binds | binds
SR16983-R2-P4-E11 (VHH) VHH: QLQLVESGGGLVQAGGSLRLSCAASGTTFSFVYMGWYRQAPGNQRDLVARISRDGSTNYLDSVKGRFTISGDNAKNTVYLQMNSLKPEDTARYYCFYNGHLNKWGRGTQVTVSS | binds | binds
SR16983-R2-P2-E10 (VHH) VHH: QLQLVESGGGLVQPGGSLRLSCVLSGSTFGRNVITWYRQPPGKQREFIAMITTSGSTRYADSVKGRFTMSRDTAKNTAFLQMSNLKLEDTAVYYCWTAIAGQGEYWGQGTQVTVSS | binds | binds
SR16983-R2-P4-F01 (VHH) VHH: QLQLVESGGGLVQAGGSLRLSCAASGRTFVGSYVMGWFRQAPGKAREFVAASSRSTGNTVYLDAVKGRFTVSRDDAKNTLYLQMSSLKPEDTAVYYCATRASINYNYANWPYWGQGTQVTVSS | binds | binds
SR16983-R2-P4-H08 (VHH) VHH: QLQLVESGGGLMQAGGSLRLSCAASGTTSSLNLMGWYRQAPGKKRESVAHMTSDGRTDYTDSVKGRFTISRDNSKNTVYLQMNNLKPEDTAVYYCYANPFLGSWSNYWGQGTQVTVSS | binds | binds
SR16983-R3-P2-B05 (VHH) VHH: QLQLVESGGGLVQAGGSLRLSCAASGTTSSLNLMGWYRQAPGKKRESVAHMTSDGRTDYVDSVKGRFTISRDNSKNTVYLQMNNLKPEDTAVYICYANPFLGSWSNYWGQGTQVTVSS | binds | binds
SR16983-R2-P4-C02 (VHH) VHH: QVQLVESGGGLVQAGGSLRLSCTTSGSTFSITAGGWYRQAPGKQRELVADIANDGSTTSADSVKGRFTISRDNAKNTVELQMSSLKLEDTAVYYCFVVGKSDSMPRARAYWGQGTQVTVSS | binds | binds
SR16983-R2-P2-D05 (VHH) VHH: QVQLVESGGGLVQPGGSLTLSCAASGTIESINDMGWYRQAPGKQRELVAAITSGGSTNYADSVKGRFTISRDNAKNTVYLQMNSLKPEDTAVYYCNAEVKRHYYYDSAGHRYWGQGTQVTVSS | binds | binds
SR16983-R2-P3-E04 (VHH) VHH: QLQLVESGGGLVQAGGSLRLSCAASGRTVGSYVMGWFRQAPGKEREFLAASSRSTGNTVYADSVKGRFSISRDDAKNTLYLQMNSLKPEDTAVYYCATRASINYNYANWPYWGQGTQVTVSS | binds | binds
SR16983-R2-P4-F03 (VHH) VHH: QVQLVESGGGLVQAGGSLRLSCAASGRTFGSYVMGWFRQAPGKEREFLAAFSRSTGSTVYADSVKGRFTISKDDAKNTLYLQMNSLKPEDTAVYYCATRASINYNYANWPYWGQGTQVTVSS | binds | binds
SR16983-R2-P3-E06 (VHH) VHH: QLQLVESGGGLVQAGGSLRLSCVASGRTVGSYAVAWFRQAPGKERELLAASSRSTGNTVYADSVKGRFTIARDDAKNTLYLQMNSLKPEDTAVYYCAARASINYNYANWPYWGQGTQVTVSS | binds | binds
SR16983-R2-P4-E08 (VHH) VHH: QLQLVESGGGLVQAGGSLTLSCAASGFTLDDYAIGWFRQAPGKEREGVSCIATSDGSTYYADSVKGRFTISSDNAKNTVYLQMNSLKPEDTAVYYCARGGLLLPKPELFDFRGQGTQVTVSP | binds | binds
SR16983-R2P1C12 (VHH) VHH: QVQLVESGGGLVQPGGSLRLSCAASGFTFSMKWMYWVRQGPGKGLEWVSTIDTSGSSTYYADSVKGRFTISRDNSKNTVYLQMNSLESADTAVYYCARSAGGLFRGRGTQVTVSS | binds | binds
SR16983-R2-P2-D08 (VHH) VHH: QLQLVESGGGLVQAGDSLRLSCALSGLAASTYAMAWFRQAPGKEREFVSVIDWKGDSTTANSVKGRFTISRDHGKNTVYLQMNSLQPEDTALYYCAARGSPGYVAKLYAHWGRGTQVTVSS | binds | binds
SR16983-R2-P4-G08 (VHH) VHH: EVQLVESGGGLVQAGGSLRLSCAASGLTSSTYAMAWFRQAPGKEREFVSVIDWRGSTTYTNSVKGRFTISRDNGKNTVYLQMNSLQPEDTALYYCAARASPGYVGSLYPYWGRGTQVTVSS | binds | binds

The remaining lines, values ahead:

binding [1] | binding [2] | Binder
binds | binds | SR16983-R3-P5-D01 (VHH) VHH: QLQLVESGGGLVQAGGSLRLSCAASGTTFDMNSIGWYRQAPGKQRELVATISIGGSTNYADSVKGRFTISRGNAKNTVYMQMNSLKPEDTAVYYCNAERIWPNRRTFWGQGTQVTVSS
binds | binds | SR16983-R3-P5-D08 (VHH) VHH: EVQLVESGGGLVQAGGSLRLSCTGSGSTFSVTAGGWYRQAPGKQRELVADIANDGSTTYLDFVKGRFTISRDNAKNSVDLQMNSLKPEDTAVYYCFVVGISDSTPRPRAYWGQGTQVTVSS
binds | binds | SR16983-R3P2D01 (VHH) VHH: QLQLVESGGGLVQAGGSLRLSCAASGTTSSFVYMGWYRQAPGNQRDLVARISSDGSTNYADSVKGRFTISGDNAKNTVYLQMNSLKPEDTARYYCFYNGHVNKWGQGTQVTVSS
binds | binds | SR16983-R3-P4-E11 (VHH) VHH: QLQLVEFGGGLVQAGGSLRLSCAASGSTFSFNYMGWYRQAPGNQRDLVARISSGGITNYADSVKGRFTISGDNAKNTVYLQMNSLKPEDTARYYCFYNGYLNKWGQGTQVTVSS
binds | binds | SR16983-R3-P3-E02 (VHH) VHH: QLQLVESGGGLVQAGGSLRLSCVLSGNTFGRNVITWYRQPPGKQREFIAMITSSGSTRYADSVKGRFTMSRDTAKNTAFLQMSSLKVEDTAVYYCWTAIAGQGEYWGQGTQVTVSS
binds | binds | SR16983-R3P2H01 (VHH) VHH: QLQLVQSGGGLVQAGGSLRLSCTASGSTVRVTAGGWYRQTPGNERELVADIDNGGSTTYADSVKGRFTISRDNAKNAVDLQMNSLKPEDTAVYRCFVIAIPDSAPRPRAYWGQGTEVTVSS
binds | binds | SR16983-R3-P4-G09 (VHH) VHH: QLQLVESGGGLVQAGGSLRLSCAASGSTVRVTAGGWYRQTPGNERELVADIDNGGSTTYADSVKGRFTISRDNAKNAVDLQMNSLKPEDTAVYRCFVIAIPDSAPRPRSYWGQGTEVTVSS
binds | binds | SR16983-R3-P4-A07 (VHH) VHH: QVQLVESGGGLVQAGGSLRLSCAASGRTFVGSYVMGWFRQAPGKEREFVAASSRSTGNTVYLDSVKGRFTVSRDDAKNTLYLQMNSLKPEDTAVYYCATRASINYNYAAWPYWGQGTQVTVSS
binds | binds | SR16983-R3P2H09 (VHH) VHH: EVQLVESGGGLVQAGGSLRVSCTTSGSTFSITAGGWYRQTPGKERELVADIANDGSTTYANSVKGRFTISRDNAKNTVELQMSSLKLEDTAAYRCFVVGISDSMPRPRAYWGQGTQVTVSS
binds | binds | SR16983-R4-P1-C12 (VHH) VHH: QLQLVESGGGLVQAGGSLRLSCAASGSTFSINVFAWYRQGSGEQRELVAFIGRSGTARYGDSVKGRFSISRDNAKKTVYLQMDSLRPEDTAVYYCNLGDYWGQGTQVTVSS
binds | binds | SR16983-R3-P3-F04 (VHH) VHH: QLQLVESGGGLVQAGGSLRLSCAASGRTVGSYAMGWFRQAPGKEREFLAASSRSTGNTVYADSVKGRFTISRDDAKNTLYLQMNSLKPEDTAVYYCAARASINYNYANWPYWGQGTQVTVSS
binds | binds | SR16983-R3-P3-C10 (VHH) VHH: QLQLVESGGGLVQAGGSLRLSCAASGRTVGSYAMGWFRQAPGKEREFLAAFSRSTGPTVYADSVKGRFTISRDDAKNTLYLQMNSLKPEDTAVYYCAARASINYNYANWPYWGQGTQVTVSS
binds | binds | SR16983-R4-P1-C10 (VHH) VHH: QVQLVESGGGLVQAGGSLRLSCVAYGSTFSINVFAWYRQAPGEQRELGELVAFIGRSGTTKYGDSVKGRFTISRDNAKNTVYLQMDSLRPEDTAVYYCNLGDYWGQGTQVTVSS
binds | binds | SR16983-R3-P3-H10 (VHH) VHH: QVQLVESGGGLVQAGDSLRLSCAASTRTVGTYVMGWFRQAPGKERELVAASSRSTGNTVYPDSVKGRFTVSRDDAKNALYLQMNSLKPEDTAIYYCAARASINYNYANWPYWGQGTQVTVSS
binds | binds | SR16983-R3P2B6 (VHH) VHH: QLQLVESGGGLVQAGGSLRLACAASGFSFDDYAIGWFRQAPGKEREGVSCITSDGSTYYADSVKGRFTISSDNAKNTVYLQMNILKPEDTAVYYCARGGLLLPKPELFEYWGQGTQVTVSS
binds | binds | SR16983-R3P2D02 (VHH) VHH: QLQLVESGGGLVQPGGSLRLSCAASGFTLDGYAIGWFRQAPGKEREGVSSIATSDGSTYYADSVKGRFTISGDDAKNTVYLHMNSLKPEDTAVYYCARGGSLVLRPKYYDYWGQGTQVTVSS
